Data reported in publication PMC11288726.
No constants are given. Whether binding was seen depends on the method and setting. Binding calls can cover weak binding; strength is not graded here. Where a sequence is shown, tags or fusion partners need not be part of it.

Assays:
Test in all cases: two-hybrid; yeast two-hybrid; bait from pDEST32 (GAL4 DNA-binding domain), prey from pDEST22 (GAL4 activation domain); growth on double and triple dropout media (-L -W -H) with different concentrations of 3-AT, dilution series
[1] = biological target: DIG-Like1 (DIL1), yeast two-hybrid fusion (Arabidopsis thaliana) (UniProt Q9FGW7)
[2] = biological target: DIG1-CΔ8aa (DIG1-C without the last 8 residues), yeast two-hybrid fusion (Arabidopsis thaliana)
[3] = biological target: C-terminal fragment of DIG1 (DIG1-C), yeast two-hybrid fusion (Arabidopsis thaliana)
[4] = biological target: AtSDR4L-CΔ6aa (AtSDR4L-C without the last 6 residues), yeast two-hybrid fusion (Arabidopsis thaliana)

Binder	binding [1]	binding [2]	binding [3]	binding [4]
VIVIPAROUS1/ABI3-LIKE 2 (VAL2), full length, yeast two-hybrid fusion (protein, UniProt Q5CCK4 1-780) MESIKVCMNALCGAASTSGEWKKGWPMRSGDLASLCDKCGCAYEQSIFCEVFHAKESGWRECNSCDKRLHCGCIASRFMMELLENGGVTCISCAKKSGLISMNVSHESNGKDFPSFASAEHVGSVLERTNLKHLLHFQRIDPTHSSLQMKQEESLLPSSLDALRHKTERKELSAQPNLSISLGPTLMTSPFHDAAVDDRSKTNSIFQLAPRSRQLLPKPANSAPIAAGMEPSGSLVSQIHVARPPPEGRGKTQLLPRYWPRITDQELLQLSGQYPHLSNSKIIPLFEKVLSASDAGRIGRLVLPKACAEAYFPPISLPEGLPLKIQDIKGKEWVFQFRFWPNNNSRMYVLEGVTPCIQSMQLQAGDTVTFSRTEPEGKLVMGYRKATNSTATQMFKGSSEPNLNMFSNSLNPGCGDINWSKLEKSEDMAKDNLFLQSSLTSARKRVRNIGTKSKRLLIDSVDVLELKITWEEAQELLRPPQSTKPSIFTLENQDFEEYDEPPVFGKRTLFVSRQTGEQEQWVQCDACGKWRQLPVDILLPPKWSCSDNLLDPGRSSCSAPDELSPREQDTLVRQSKEFKRRRLASSNEKLNQSQDASALNSLGNAGITTTGEQGEITVAATTKHPRHRAGCSCIVCSQPPSGKGKHKPSCTCTVCEAVKRRFRTLMLRKRNKGEAGQASQQAQSQSECRDETEVESIPAVELAAGENIDLNSDPGASRVSMMRLLQAAAFPLEAYLKQKAISNTAGEQQSSDMVSTEHGSSSAAQETEKDTTNGAHDPVN	binds	binds	binds	binds
VIVIPAROUS1/ABI3-LIKE 1 (VAL1), yeast two-hybrid fusion (protein, UniProt Q8W4L5 1-790) MFEVKMGSKMCMNASCGTTSTVEWKKGWPLRSGLLADLCYRCGSAYESSLFCEQFHKDQSGWRECYLCSKRLHCGCIASKVTIELMDYGGVGCSTCACCHQLNLNTRGENPGVFSRLPMKTLADRQHVNGESGGRNEGDLFSQPLVMGGDKREEFMPHRGFGKLMSPESTTTGHRLDAAGEMHESSPLQPSLNMGLAVNPFSPSFATEAVEGMKHISPSQSNMVHCSASNILQKPSRPAISTPPVASKSAQARIGRPPVEGRGRGHLLPRYWPKYTDKEVQQISGNLNLNIVPLFEKTLSASDAGRIGRLVLPKACAEAYFPPISQSEGIPLKIQDVRGREWTFQFRYWPNNNSRMYVLEGVTPCIQSMMLQAGDTVTFSRVDPGGKLIMGSRKAANAGDMQGCGLTNGTSTEDTSSSGVTENPPSINGSSCISLIPKELNGMPENLNSETNGGRIGDDPTRVKEKKRTRTIGAKNKRLLLHSEESMELRLTWEEAQDLLRPSPSVKPTIVVIEEQEIEEYDEPPVFGKRTIVTTKPSGEQERWATCDDCSKWRRLPVDALLSFKWTCIDNVWDVSRCSCSAPEESLKELENVLKVGREHKKRRTGESQAAKSQQEPCGLDALASAAVLGDTIGEPEVATTTRHPRHRAGCSCIVCIQPPSGKGRHKPTCGCTVCSTVKRRFKTLMMRRKKKQLERDVTAAEDKKKKDMELAESDKSKEEKEVNTARIDLNSDPYNKEDVEAVAVEKEESRKRAIGQCSGVVAQDASDVLGVTELEGEGKNVREEPRVSS	no binding	–	–	–
